# Data from the supplement of paper PMC8728848.
# This is one part of the list.
# B1: PX14379D-pdi-530-26-530 (Parabacteroides distasonis) (protein)
# chain: DETVYDKLPADDFGQSTAELNALIGNSHNTMKKFWTEYMHLSECSGSMAVTPTRRGGDWYDGGQYREIYMHTWTSQTSRVKSAWKAATEAIGTCNEAIRKLQNSEILTEEEKAQDVADLRGVRAFWIYVMMDYWGNIPLLTEFHPTDKVFPGNSSRQEVFDWLIQEVEEIKDICPPATTENYGSFTQGAAYSLLAKLYLNAEAWGVTFSGNAYQKVIDNCDKVMAMGYILEPNWKDNFSVTNENSKEAILAATFSSSDTGNDGNVKNELHNNTLHYKDYLSLGITASGTWNGICAQPEYVRLFDEEDARLDGTFLTGLMIDKSTGKPIMTDHNNELNHTIDVNMIPGMEYDGTNWSAVEQHDGARCFKWEFASDLTSSMGNDFHIFRLADIYLMKAEALLRGGGSVSEATALVNTIRERGYGNSDHNYATVTLKEVQLERRLELAWEVYSRQDDIRFGCFTTGMWPQSNCERKADDYLKLLPVSQDAWQVNPNLKQNPGYAAFSK
# Tests used:
# Assay in all cases: glycan array binding signal (z-score within array); higher = stronger binding
# Conditions in all cases: glycan notation: IUPAC condensed, linker removed
# [1] = biological target: Gal(b1-4)GlcNAc(b1-3)Gal(b1-4)GlcNAc(b1-2)[Gal(b1-4)GlcNAc(b1-3)Gal(b1-4)GlcNAc(b1-6)]Man(a1-6)[Gal(b1-4)GlcNAc(b1-3)Gal(b1-4)GlcNAc(b1-2)Man(a1-3)]Man(b1-4)GlcNAc(b1-4)GlcNAc
# Procedure, shortened: (§1)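 Columns mapping to the same glycan were averaged after glycan names were converted to IUPAC-condensed notation. The data come from 3228 arrays in the Consortium for Functional Glycomics database, limited to those with an available protein sequence. Binding is reported as a within-array Z-score averaged across arrays of one protein sequence and across linkers.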
# [2] = biological target: Gal(b1-4)GlcNAc(b1-3)Gal(b1-4)GlcNAc(b1-2)[Gal(b1-4)GlcNAc(b1-3)Gal(b1-4)GlcNAc(b1-6)]Man(a1-6)[Gal(b1-4)GlcNAc(b1-3)Gal(b1-4)GlcNAc(b1-2)Man(a1-3)]Man(b1-4)GlcNAc(b1-4)[Fuc(a1-6)]GlcNAc
# Procedure, shortened: as §1
# [3] = biological target: Gal(b1-4)GlcNAc(b1-3)Gal(b1-4)GlcNAc(b1-3)Gal(b1-4)GlcNAc
# Procedure, shortened: as §1
# [4] = biological target: Gal(b1-4)GlcNAc(b1-3)Gal(b1-4)GlcNAc(b1-3)Gal(b1-4)GlcNAc(b1-2)Man(a1-3)[Gal(b1-4)GlcNAc(b1-3)Gal(b1-4)GlcNAc(b1-3)Gal(b1-4)GlcNAc(b1-2)Man(a1-6)]Man(b1-4)GlcNAc(b1-4)GlcNAc
# Procedure, shortened: as §1
# [5] = biological target: Gal(b1-4)GlcNAc(b1-3)Gal(b1-4)GlcNAc(b1-3)Gal(b1-4)GlcNAc(b1-2)Man(a1-3)[Gal(b1-4)GlcNAc(b1-3)Gal(b1-4)GlcNAc(b1-3)Gal(b1-4)GlcNAc(b1-2)Man(a1-6)]Man(b1-4)GlcNAc(b1-4)[Fuc(a1-6)]GlcNAc
# Procedure, shortened: as §1
# [6] = biological target: Gal(b1-4)GlcNAc(b1-3)Gal(b1-4)GlcNAc(b1-3)Gal(b1-4)GlcNAc(b1-2)[Gal(b1-4)GlcNAc(b1-3)Gal(b1-4)GlcNAc(b1-3)Gal(b1-4)GlcNAc(b1-6)]Man(a1-6)[Gal(b1-4)GlcNAc(b1-3)Gal(b1-4)GlcNAc(b1-3)Gal(b1-4)GlcNAc(b1-2)Man(a1-3)]Man(b1-4)GlcNAc(b1-4)[Fuc(a1-6)]GlcNAc
# Procedure, shortened: as §1
# [7] = biological target: Gal(b1-4)GlcNAc(b1-3)Gal(b1-4)GlcNAc(b1-3)Gal(b1-4)GlcNAc(b1-3)Gal(b1-4)GlcNAc(b1-2)Man(a1-3)[Gal(b1-4)GlcNAc(b1-3)Gal(b1-4)GlcNAc(b1-3)Gal(b1-4)GlcNAc(b1-3)Gal(b1-4)GlcNAc(b1-2)Man(a1-6)]Man(b1-4)GlcNAc(b1-4)GlcNAc
# Procedure, shortened: as §1
# [8] = biological target: Gal(b1-4)GlcNAc(b1-3)Gal(b1-4)GlcNAc(b1-3)Gal(b1-4)GlcNAc(b1-3)Gal(b1-4)GlcNAc(b1-2)Man(a1-3)[Gal(b1-4)GlcNAc(b1-3)Gal(b1-4)GlcNAc(b1-3)Gal(b1-4)GlcNAc(b1-3)Gal(b1-4)GlcNAc(b1-2)Man(a1-6)]Man(b1-4)GlcNAc(b1-4)[Fuc(a1-6)]GlcNAc
# Procedure, shortened: as §1
# [9] = biological target: Gal(b1-4)GlcNAc(b1-3)Gal(b1-4)GlcNAc(b1-3)Gal(b1-4)GlcNAc(b1-3)Gal(b1-4)GlcNAc(b1-2)[Gal(b1-4)GlcNAc(b1-3)Gal(b1-4)GlcNAc(b1-3)Gal(b1-4)GlcNAc(b1-3)Gal(b1-4)GlcNAc(b1-6)]Man(a1-6)[Gal(b1-4)GlcNAc(b1-3)Gal(b1-4)GlcNAc(b1-3)Gal(b1-4)GlcNAc(b1-3)Gal(b1-4)GlcNAc(b1-2)Man(a1-3)]Man(b1-4)GlcNAc(b1-4)[Fuc(a1-6)]GlcNAc
# Procedure, shortened: as §1
# [10] = biological target: Gal(b1-4)GlcNAc(b1-3)Gal(b1-4)GlcNAc(b1-3)Gal(b1-4)GlcNAc(b1-3)Gal(b1-4)GlcNAc(b1-3)Gal(b1-4)GlcNAc(b1-2)Man(a1-3)[Gal(b1-4)GlcNAc(b1-3)Gal(b1-4)GlcNAc(b1-3)Gal(b1-4)GlcNAc(b1-3)Gal(b1-4)GlcNAc(b1-3)Gal(b1-4)GlcNAc(b1-2)Man(a1-6)]Man(b1-4)GlcNAc(b1-4)GlcNAc
# Procedure, shortened: as §1
# [11] = biological target: Gal(b1-4)GlcNAc(b1-3)Gal(b1-4)GlcNAc(b1-3)Gal(b1-4)GlcNAc(b1-3)Gal(b1-4)GlcNAc(b1-3)Gal(b1-4)GlcNAc(b1-2)Man(a1-3)[Gal(b1-4)GlcNAc(b1-3)Gal(b1-4)GlcNAc(b1-3)Gal(b1-4)GlcNAc(b1-3)Gal(b1-4)GlcNAc(b1-3)Gal(b1-4)GlcNAc(b1-2)Man(a1-6)]Man(b1-4)GlcNAc(b1-4)[Fuc(a1-6)]GlcNAc
# Procedure, shortened: as §1
# [12] = biological target: Gal(b1-4)GlcNAc(b1-3)Gal(b1-4)GlcNAc(b1-3)Gal(b1-4)GlcNAc(b1-3)Gal(b1-4)GlcNAc(b1-3)Gal(b1-4)GlcNAc(b1-2)[Gal(b1-4)GlcNAc(b1-3)Gal(b1-4)GlcNAc(b1-3)Gal(b1-4)GlcNAc(b1-3)Gal(b1-4)GlcNAc(b1-3)Gal(b1-4)GlcNAc(b1-6)]Man(a1-6)[Gal(b1-4)GlcNAc(b1-3)Gal(b1-4)GlcNAc(b1-3)Gal(b1-4)GlcNAc(b1-3)Gal(b1-4)GlcNAc(b1-3)Gal(b1-4)GlcNAc(b1-2)Man(a1-3)]Man(b1-4)GlcNAc(b1-4)[Fuc(a1-6)]GlcNAc
# Procedure, shortened: as §1
# [13] = biological target: Gal(b1-4)GlcNAc(b1-3)Gal(b1-4)GlcNAc(b1-3)Gal(b1-4)GlcNAc(b1-3)Gal(b1-4)GlcNAc(b1-3)Gal(b1-4)GlcNAc(b1-3)Gal(b1-4)GlcNAc(b1-2)Man(a1-3)[Gal(b1-4)GlcNAc(b1-3)Gal(b1-4)GlcNAc(b1-3)Gal(b1-4)GlcNAc(b1-3)Gal(b1-4)GlcNAc(b1-3)Gal(b1-4)GlcNAc(b1-3)Gal(b1-4)GlcNAc(b1-2)Man(a1-6)]Man(b1-4)GlcNAc(b1-4)GlcNAc
# Procedure, shortened: as §1
# [14] = biological target: Gal(b1-4)GlcNAc(b1-3)Gal(b1-4)GlcNAc(b1-3)GalNAc
# Procedure, shortened: as §1
# [15] = biological target: Gal(b1-4)GlcNAc(b1-3)Gal(b1-4)GlcNAc(b1-3)[Gal(b1-4)GlcNAc(b1-3)Gal(b1-4)GlcNAc(b1-6)]GalNAc
# Procedure, shortened: as §1
# [16] = biological target: Gal(b1-4)GlcNAc(b1-3)Gal(b1-4)GlcNAc(b1-6)[Gal(b1-3)]GalNAc
# Procedure, shortened: as §1
# [17] = biological target: Gal(b1-4)GlcNAc(b1-3)Gal(b1-4)[Fuc(a1-3)]GlcNAc(b1-3)Gal(b1-4)[Fuc(a1-3)]GlcNAc
# Procedure, shortened: as §1
# [18] = biological target: Gal(b1-4)GlcNAc(b1-3)GalNAc
# Procedure, shortened: as §1
# [19] = biological target: Gal(b1-4)GlcNAc(b1-3)[Fuc(a1-3)GlcNAc(b1-6)]Gal(b1-4)Glc
# Procedure, shortened: as §1
# [20] = biological target: Gal(b1-4)GlcNAc(b1-3)[Gal(b1-4)GlcNAc(b1-6)]Gal(b1-4)GlcNAc
# Procedure, shortened: as §1
# [21] = biological target: Gal(b1-4)GlcNAc(b1-3)[GlcNAc(b1-6)]Gal(b1-4)GlcNAc
# Procedure, shortened: as §1
# [22] = biological target: Gal(b1-4)GlcNAc(b1-6)Gal(b1-4)GlcNAc
# Procedure, shortened: as §1
binder,measurement,setting,value
B1,glycan array binding signal (z-score),[1],0.627
same,glycan array binding signal (z-score),[2],1.17
same,glycan array binding signal (z-score),[3],-0.298
same,glycan array binding signal (z-score),[4],1.92
same,glycan array binding signal (z-score),[5],2.12
same,glycan array binding signal (z-score),[6],1.02
same,glycan array binding signal (z-score),[7],-0.62
same,glycan array binding signal (z-score),[8],2.34
same,glycan array binding signal (z-score),[9],3.06
same,glycan array binding signal (z-score),[10],0.811
same,glycan array binding signal (z-score),[11],2.37
same,glycan array binding signal (z-score),[12],1.59
same,glycan array binding signal (z-score),[13],0.495
same,glycan array binding signal (z-score),[14],-0.343
same,glycan array binding signal (z-score),[15],0.36
same,glycan array binding signal (z-score),[16],0.117
same,glycan array binding signal (z-score),[17],-0.033
same,glycan array binding signal (z-score),[18],-0.571
same,glycan array binding signal (z-score),[19],-0.886
same,glycan array binding signal (z-score),[20],0.426
same,glycan array binding signal (z-score),[21],-0.719
same,glycan array binding signal (z-score),[22],0.063

# 2 entries from above, bar-delimited.
binder | measurement | setting | value
B1 | glycan array binding signal (z-score) | [10] | 0.811
same | glycan array binding signal (z-score) | [16] | 0.117
